Assay results reported in the supplement of paper PMC3334620.
Whole data set: some 33,000 sequences, median “E-score (-0.5 to 0.5)” near -0.0014, cut for the highest 2% near 0.25. This is one part of the list.

Each sequence was assayed against T1, Cad1 (UniProt P24813) (assay: PBM E-score (8-mer binding enrichment) (E-score (-0.5 to 0.5)); higher = stronger / more preferred TF binding). Conditions: protein concentration: 100 nM; construct: GST-full length.
T1 sequence: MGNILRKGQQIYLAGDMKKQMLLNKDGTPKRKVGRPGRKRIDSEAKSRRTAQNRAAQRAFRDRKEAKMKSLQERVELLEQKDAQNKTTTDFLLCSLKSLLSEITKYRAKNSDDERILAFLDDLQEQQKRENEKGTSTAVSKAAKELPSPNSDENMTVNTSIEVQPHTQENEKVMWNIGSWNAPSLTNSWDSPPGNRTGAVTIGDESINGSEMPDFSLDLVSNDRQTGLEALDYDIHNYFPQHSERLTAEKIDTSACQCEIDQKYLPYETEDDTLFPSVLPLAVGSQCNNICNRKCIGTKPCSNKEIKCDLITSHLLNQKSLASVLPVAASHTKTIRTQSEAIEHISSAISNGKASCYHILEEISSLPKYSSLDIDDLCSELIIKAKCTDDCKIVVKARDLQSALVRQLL
Method in brief: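 For each ungapped eight-base word taken together with its reverse complement, the Universal PBM Analysis Suite assigned an E-score. Binding data came from GST-tagged yeast transcription factors, applied at about 100-200 nM, on universal all-10-mer Agilent arrays made double-stranded by primer extension. Fluorescent anti-GST marked bound protein, and scans were normalised with masliner.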

| Sequence | PBM E-score |
| --- | --- |
| ACGGATCA | 0.215 |
| CCGGTATA | -0.0258 |
| AAATTCTA | 0.127 |
| GCTTCCAA | -0.0323 |
| CCTTACCC | -0.158 |
| GCGCAGGA | -0.139 |
| CTTCTATA | -0.00317 |
| CATACGAG | -0.0876 |
| AATACCCT | -0.00186 |
| AAAAGCCC | -0.0561 |
| AGTGAGGA | 0.0115 |
| AAAGCTTG | -0.0355 |
| GGGTTCTA | -0.193 |
| GGAGCAAA | -0.169 |
| ACGGCGGG | 0.132 |
| CGGGGCGC | -0.277 |
| AACAGGCC | -0.19 |
| ATGTAATG | 0.281 |
| CCAAACCC | -0.0556 |
| CAAGCCTC | -0.0653 |
| TTCAGAAA | -0.0441 |
| AGTACTTG | 0.104 |
| CGAATATA | 0.13 |
| CGATCAGA | -0.0457 |
| ACCTCAAT | -0.0754 |

| Sequence | PBM E-score |
| --- | --- |
| TAATTGGA | 0.106 |
| AAGTGATA | -0.118 |
| AAGTTTCG | 0.0162 |
| CGACCGCC | -0.231 |
| TAAAATCA | 0.102 |
| CACGGAGA | 0.0828 |
| AACATGTT | 0.0389 |
| CGGGCACA | -0.15 |
| GCCGATAA | 0.0394 |
| CTCCAGGA | -0.0268 |
| AACTTACC | 0.0034 |
| GACTAAAA | 0.114 |
| ACGTATAG | -0.136 |
| CTAACAAC | 0.115 |
| GTTTCCAA | 0.0109 |
| AGTCCCTA | -0.049 |
| GGGTCAAA | -0.108 |
| ATGCGCAG | -0.0137 |
| ATAGGATA | 0.144 |
| ATAATCAA | 0.157 |
| ATTTGACA | 0.242 |
| CCATCCGA | 0.0418 |
| TATGATAA | 0.236 |
| AAACGCAT | -0.019 |
| TCGGGAAA | 0.163 |

| Sequence | PBM E-score |
| --- | --- |
| GTCTAATA | -0.0209 |
| CTAAGGGC | -0.0561 |
| GCAATTTA | 0.244 |
| AGAGTGCC | -0.0764 |
| CGGCGGAG | -0.0139 |
| CCTGCTCG | -0.198 |
| CTCGACGA | -0.175 |
| CTCAGGGA | -0.205 |
| GCCAATCC | -0.0512 |
| GCACTGGA | -0.105 |
| GATCGCTA | 0.0219 |
| AAAGTAGA | -0.137 |
| ATGCGGCA | 0.0716 |
| GCAGGGGC | -0.0952 |
| AGAAACCG | -0.0713 |
| GTCTGATA | -0.0357 |
| TATTGGAA | -0.133 |
| ACTTTACA | 0.0245 |
| AGGCTCGG | -0.0962 |
| CAGCGCAC | 0.0633 |
| ATTGCCGG | 0.13 |
| CGCTCTAC | -0.0487 |
| CGGATAAA | 0.226 |
| CCCGACTA | -0.0865 |
| CGTCTTTC | -0.125 |

Two successive entries already listed, for reference:

| Sequence | PBM E-score |
| --- | --- |
| CATACGAG | -0.0876 |
| AATACCCT | -0.00186 |

(continued)

| Sequence | PBM E-score |
| --- | --- |
| ACTTTCTG | -0.00023 |
| CGACGAAC | 0.113 |
| CGCTTATA | 0.178 |
| GCAGTAGA | -0.167 |
| AAGCAAAG | -0.102 |
| AGATGCCC | 0.00043 |
| CTGTGTCA | -0.0643 |
| CCTATTAC | -0.0089 |
| CGCGATCA | 0.111 |
| CACCTCTG | -0.0801 |
| ACGACCCT | -0.215 |
| AGGTGGTA | -0.0065 |
| CTCTCCAC | -0.192 |
| ACGTTTCT | -0.133 |
| GCGAATGA | 0.111 |
| AATCCAAC | -0.0721 |
| AAGGCTCG | -0.185 |
| CCCTTCGG | -0.285 |
| ACCGCGGC | 0.0121 |
| ACTACCGC | -0.0705 |
| CAACCTGC | -0.00333 |
| AGACTCCC | -0.408 |
| TGCCTCAA | -0.222 |
| CACTCCAC | -0.0836 |
| ATCTAGGC | -0.102 |

| Sequence | PBM E-score |
| --- | --- |
| TCACGAAA | 0.104 |
| CGCCGGCC | -0.124 |
| ACGCTTCG | -0.165 |
| AGACTCCT | -0.0765 |
| GCAGATGC | 0.0377 |
| AATGCTTG | -0.0597 |
| TTGCTAAA | -0.0366 |
| GTCCGCCA | -0.176 |
| ACATTGTA | 0.0745 |
| TAACAAAA | 0.177 |
| CACAGGCG | -0.0182 |
| AAGCCAAT | -0.0633 |
| TCGTTGCA | 0.108 |
| GGCCACAC | -0.0179 |
| ACTGGTAA | 0.163 |
| CATTTCAG | -0.00563 |
| GCCGCAGA | 0.0302 |
| GCTCGCCA | 0.0777 |
| AAACGTGA | -0.024 |
| AGCAGTTG | 0.0783 |
| GCTCCCAA | -0.247 |
| TGCACCAA | -0.196 |
| AGGCTGCC | -0.168 |
| TATGTTCA | 0.123 |
| CATACACC | 0.00325 |

Individual results from the entries so far:
In PBM E-score, AAAAGCCC is listed with -0.0561
In PBM E-score, ATAATCAA is listed with 0.157
In PBM E-score, CTCGACGA is listed with -0.175
In PBM E-score, GTCTAATA is listed with -0.0209
In PBM E-score, CAAGCCTC is listed with -0.0653

Next part:

| Sequence | PBM E-score |
| --- | --- |
| AACGTTGA | 0.131 |
| AACACACG | -0.0441 |
| CGATTGTA | 0.224 |
| ATTGCCTC | -0.0335 |
| CAAGGGTA | -0.0295 |
| CGGAGAGC | -0.139 |
| AGCTAAAT | -0.0617 |
| GAAAACTA | -0.0161 |
| ATATGGCC | -0.0282 |
| CTCGATTA | 0.276 |
| CGGGCGTC | -0.0378 |
| GCAAGGCA | -0.141 |
| AGAGTTGC | 0.0268 |
| GGAAACAC | 0.189 |
| ACGTGGCT | -0.121 |
| ATCGTGGA | -0.0737 |
| GAAGCGAC | -0.0449 |
| AAGCCTAT | 0.0413 |
| CGAGGATA | 0.00878 |
| AAAGGCGT | -0.124 |
| AACCAAGG | -0.00395 |
| GCCTCAAA | -0.2 |
| GGTTATAA | 0.048 |
| CAACCACG | 0.105 |
| CTGCAGGC | -0.18 |

| Sequence | PBM E-score |
| --- | --- |
| GCTAAACA | 0.143 |
| CTATGCCA | -0.143 |
| CGTGAAAG | 0.00161 |
| ACTGCCCA | -0.143 |
| ACCAGCTA | -0.062 |
| ATTATCCC | 0.0728 |
| ATGCGCAA | 0.107 |
| AGATGATC | -0.104 |
| GTCTGCGA | 0.0486 |
| AGTCGTCG | -0.213 |
| TGCAAGCA | -0.109 |
| CGTCATTC | 0.249 |
| CTAAGTGC | -0.0806 |
| CCATAGGG | -0.0667 |
| CATGCTCA | 0.049 |
| AGCCTTCG | -0.153 |
| CATGCCTC | 0.113 |
| GCCGCGTA | -0.0177 |
| AGTAGGCC | 0.011 |
| AACTGGTC | -0.107 |
| AGAGGGTG | -0.0923 |
| GTAGCTAA | -0.0506 |
